Experimental findings from patent US9957546B2, “Vivo detection of phospholipase activation” (THE TRUSTEES OF THE UNIVERSITY OF PENNSYLVANIA, priority 2008, dated 2018) are described below.

Entries after “also recorded” stand apart in the source; their conditions may differ.

This data set deals with DU145 prostate cells. In words: Cell uptake and in situ activation, laser confocal microscopy. Type of data set: cell-based, human. The settings on record: 5 μM, 1 hr.

As for `C=Cc1c(C)c2cc3nc(c4c5[nH]c(cc6nc(cc1[nH]2)C(C)=C6CC)c(C)c5C(=O)C4)C(CCC(=O)OC(COC(=O)CCCCCCCCCCCCCCC)COP(=O)(O)OCCN)C3C` (stereo not shown) [Pyro-PL], the “subcellular localization of fluorescence” value is listed as “primarily cytoplasmic; also recorded: localizes primarily in cytoplasm”.
